Paper doi:10.1101/2021.12.01.470696
These are yes or no findings as the source states them, for the method shown. In cells and extracts the contact can be indirect. Some binding calls cover weakened binding; strength is not graded here. For part of these data: Sequences can lack the tags named with a protein. Each block holds one substance with its values, some of them ahead of it.

Amino acid sequences for entries named in this document (tags omitted). A change or cut given only in a name is not applied to a line headed by its entry.
UniProt Q86WV6: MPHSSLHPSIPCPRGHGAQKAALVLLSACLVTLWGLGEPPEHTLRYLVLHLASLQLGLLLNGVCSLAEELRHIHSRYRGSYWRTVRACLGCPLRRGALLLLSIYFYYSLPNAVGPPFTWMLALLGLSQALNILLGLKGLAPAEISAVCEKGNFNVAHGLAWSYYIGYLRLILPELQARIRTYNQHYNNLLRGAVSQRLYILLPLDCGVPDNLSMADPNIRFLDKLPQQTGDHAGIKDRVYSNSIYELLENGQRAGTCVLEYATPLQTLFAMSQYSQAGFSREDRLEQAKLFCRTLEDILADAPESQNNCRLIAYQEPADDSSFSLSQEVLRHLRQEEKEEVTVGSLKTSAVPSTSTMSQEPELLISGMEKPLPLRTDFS
UniProt Q7Z434: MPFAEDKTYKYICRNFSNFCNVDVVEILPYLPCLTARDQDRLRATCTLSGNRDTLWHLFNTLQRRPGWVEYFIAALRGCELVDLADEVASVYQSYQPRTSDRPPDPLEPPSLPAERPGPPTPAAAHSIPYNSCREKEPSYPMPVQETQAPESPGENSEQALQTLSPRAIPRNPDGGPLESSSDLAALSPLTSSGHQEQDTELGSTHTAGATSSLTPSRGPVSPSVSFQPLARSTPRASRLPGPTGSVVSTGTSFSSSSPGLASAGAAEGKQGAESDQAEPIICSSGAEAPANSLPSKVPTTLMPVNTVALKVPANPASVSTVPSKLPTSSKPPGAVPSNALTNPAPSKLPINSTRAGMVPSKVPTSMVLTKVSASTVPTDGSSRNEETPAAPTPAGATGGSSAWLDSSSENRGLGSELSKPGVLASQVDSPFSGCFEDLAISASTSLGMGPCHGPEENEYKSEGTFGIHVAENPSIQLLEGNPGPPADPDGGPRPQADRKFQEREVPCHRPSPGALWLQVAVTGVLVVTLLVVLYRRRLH
UniProt P07355: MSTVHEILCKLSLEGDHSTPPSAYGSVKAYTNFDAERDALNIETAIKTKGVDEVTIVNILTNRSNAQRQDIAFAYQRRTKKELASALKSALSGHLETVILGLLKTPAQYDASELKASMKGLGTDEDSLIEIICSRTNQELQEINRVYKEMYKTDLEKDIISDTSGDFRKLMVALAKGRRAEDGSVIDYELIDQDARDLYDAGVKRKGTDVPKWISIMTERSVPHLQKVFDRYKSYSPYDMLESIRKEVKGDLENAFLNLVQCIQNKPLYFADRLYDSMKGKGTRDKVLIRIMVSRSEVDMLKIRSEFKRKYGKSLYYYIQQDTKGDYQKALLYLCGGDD

How the values were obtained:
Assay in all cases: co-IP
Flag-IRF3 = target: T1, Flag-IRF3 (UniProt Q14653)
T1 sequence: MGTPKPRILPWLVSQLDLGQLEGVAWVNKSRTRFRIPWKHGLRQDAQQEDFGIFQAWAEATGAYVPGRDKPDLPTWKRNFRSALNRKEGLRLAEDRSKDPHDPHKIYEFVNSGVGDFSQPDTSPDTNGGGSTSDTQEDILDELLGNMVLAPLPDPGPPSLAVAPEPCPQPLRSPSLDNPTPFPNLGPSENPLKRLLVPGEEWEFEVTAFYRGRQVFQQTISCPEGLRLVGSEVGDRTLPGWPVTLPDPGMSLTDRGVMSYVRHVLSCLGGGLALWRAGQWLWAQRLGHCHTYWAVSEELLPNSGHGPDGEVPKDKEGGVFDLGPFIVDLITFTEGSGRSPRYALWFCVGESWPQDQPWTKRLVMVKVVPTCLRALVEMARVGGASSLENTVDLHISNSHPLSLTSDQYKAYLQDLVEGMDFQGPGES

Flag-IRF3-D1 (1-382 aa) = target: T2, Flag-IRF3-D1 (1-382 aa) (UniProt Q14653)
T2 sequence: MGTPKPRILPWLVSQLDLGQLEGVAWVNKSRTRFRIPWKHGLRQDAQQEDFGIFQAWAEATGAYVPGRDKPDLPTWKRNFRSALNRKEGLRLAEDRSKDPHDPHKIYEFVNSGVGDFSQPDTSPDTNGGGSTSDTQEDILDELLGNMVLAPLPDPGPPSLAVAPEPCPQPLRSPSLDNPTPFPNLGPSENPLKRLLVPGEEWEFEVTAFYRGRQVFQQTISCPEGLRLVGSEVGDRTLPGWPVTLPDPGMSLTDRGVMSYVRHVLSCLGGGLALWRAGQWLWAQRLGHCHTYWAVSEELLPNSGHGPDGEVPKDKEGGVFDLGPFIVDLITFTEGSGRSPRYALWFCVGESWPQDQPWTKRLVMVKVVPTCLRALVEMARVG

[1] = target: T3, Flag-IRF3-D4 (141-427 aa) (UniProt Q14653)
T3 sequence: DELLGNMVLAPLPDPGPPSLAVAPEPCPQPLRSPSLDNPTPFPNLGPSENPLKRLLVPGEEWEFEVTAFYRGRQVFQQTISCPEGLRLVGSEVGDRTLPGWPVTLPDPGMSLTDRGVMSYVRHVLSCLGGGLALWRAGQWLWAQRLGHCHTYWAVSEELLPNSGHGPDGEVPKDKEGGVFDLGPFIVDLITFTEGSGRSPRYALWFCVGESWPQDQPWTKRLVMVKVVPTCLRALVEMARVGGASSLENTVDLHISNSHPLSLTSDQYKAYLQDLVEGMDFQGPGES

Flag-STING = Flag-STING (UniProt Q86WV6)
Flag-IRF3-D2 (1-357 aa) = target: T4, Flag-IRF3-D2 (1-357 aa) (UniProt Q14653)
T4 sequence: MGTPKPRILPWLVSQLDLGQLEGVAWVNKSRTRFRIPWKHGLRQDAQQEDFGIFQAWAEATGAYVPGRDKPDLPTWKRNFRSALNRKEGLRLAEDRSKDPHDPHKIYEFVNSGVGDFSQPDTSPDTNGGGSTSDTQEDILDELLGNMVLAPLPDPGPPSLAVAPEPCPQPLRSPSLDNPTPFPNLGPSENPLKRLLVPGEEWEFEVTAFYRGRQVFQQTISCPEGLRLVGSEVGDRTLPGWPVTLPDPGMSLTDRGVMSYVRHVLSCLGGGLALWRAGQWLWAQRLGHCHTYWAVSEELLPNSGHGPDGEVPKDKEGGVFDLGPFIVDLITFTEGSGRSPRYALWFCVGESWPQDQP

Flag-MAVS = Flag-MAVS (UniProt Q7Z434)
Flag-MDA5 = target: T5, Flag-MDA5 (UniProt Q9BYX4)
T5 sequence: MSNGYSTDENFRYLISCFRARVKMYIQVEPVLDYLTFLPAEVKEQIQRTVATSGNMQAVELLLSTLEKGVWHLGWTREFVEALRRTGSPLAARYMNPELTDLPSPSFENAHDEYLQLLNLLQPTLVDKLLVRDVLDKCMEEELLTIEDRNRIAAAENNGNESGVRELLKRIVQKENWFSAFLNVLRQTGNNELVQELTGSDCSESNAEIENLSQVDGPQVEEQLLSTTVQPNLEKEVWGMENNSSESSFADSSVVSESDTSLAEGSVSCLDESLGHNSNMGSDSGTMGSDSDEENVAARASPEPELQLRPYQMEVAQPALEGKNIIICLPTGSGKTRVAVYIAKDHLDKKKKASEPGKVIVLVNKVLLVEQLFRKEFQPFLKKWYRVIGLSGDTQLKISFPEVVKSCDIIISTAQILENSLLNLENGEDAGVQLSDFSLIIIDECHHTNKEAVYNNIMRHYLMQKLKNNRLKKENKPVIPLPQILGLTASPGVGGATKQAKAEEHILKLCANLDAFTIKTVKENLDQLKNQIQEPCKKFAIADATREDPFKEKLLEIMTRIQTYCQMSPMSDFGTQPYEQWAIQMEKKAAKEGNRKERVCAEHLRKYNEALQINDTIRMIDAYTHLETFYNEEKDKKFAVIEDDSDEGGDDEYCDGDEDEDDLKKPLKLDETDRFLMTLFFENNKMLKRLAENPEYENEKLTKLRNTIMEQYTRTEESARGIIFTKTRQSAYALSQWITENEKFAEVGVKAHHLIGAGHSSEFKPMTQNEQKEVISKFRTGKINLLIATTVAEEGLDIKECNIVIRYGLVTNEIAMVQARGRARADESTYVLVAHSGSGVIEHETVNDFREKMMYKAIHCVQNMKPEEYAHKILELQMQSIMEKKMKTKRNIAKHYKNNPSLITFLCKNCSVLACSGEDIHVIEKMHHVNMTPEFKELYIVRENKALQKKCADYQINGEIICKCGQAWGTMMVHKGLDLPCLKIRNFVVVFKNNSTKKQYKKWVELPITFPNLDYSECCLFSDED

[2] = target: T6, Flag-IRF3-D5 (201-427 aa) (UniProt Q14653)
T6 sequence: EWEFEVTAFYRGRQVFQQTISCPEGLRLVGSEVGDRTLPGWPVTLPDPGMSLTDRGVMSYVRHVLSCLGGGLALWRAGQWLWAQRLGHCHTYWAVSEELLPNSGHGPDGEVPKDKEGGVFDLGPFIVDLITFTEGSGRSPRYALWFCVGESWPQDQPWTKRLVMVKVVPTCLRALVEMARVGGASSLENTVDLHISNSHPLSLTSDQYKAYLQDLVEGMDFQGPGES

Flag-IRF3-D3 (1-140 aa) = target: T7, Flag-IRF3-D3 (1-140 aa) (UniProt Q14653)
T7 sequence: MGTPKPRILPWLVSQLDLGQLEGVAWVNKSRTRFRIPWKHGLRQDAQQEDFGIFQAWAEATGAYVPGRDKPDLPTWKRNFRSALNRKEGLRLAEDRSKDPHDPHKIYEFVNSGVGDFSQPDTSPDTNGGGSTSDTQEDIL

Substance: HA-ANXA2-D2 (1-174 aa) (from UniProt P07355 1-174) (domain or fragment)
binding (Flag-IRF3): binds

Substance: HA-ANXA2-D3 (1-259 aa) (from UniProt P07355 1-259) (domain or fragment)
binding (Flag-IRF3): binds

Substance: HA-ANXA2-D6 (207-340 aa) (from UniProt P07355 207-339) (domain or fragment)
binding (Flag-IRF3): binds

The remaining lines, values ahead:

binding (Flag-IRF3): no binding
Substance: HA-ANXA2-D1 (1-102 aa) (from UniProt P07355 1-102) (domain or fragment)

binding (Flag-IRF3): binds
Substance: HA-ANXA2-D4 (50-340 aa) (from UniProt P07355 50-339) (domain or fragment)

binding (Flag-IRF3): binds
Substance: HA-ANXA2-D5 (122-340 aa) (from UniProt P07355 122-339) (domain or fragment)

binding (Flag-IRF3-D1 (1-382 aa)): binds | binding [1]: binds | binding (Flag-STING): binds | binding (Flag-IRF3-D2 (1-357 aa)): binds | binding (Flag-IRF3): binds | binding (Flag-MAVS): binds | binding (Flag-MDA5): binds | binding [2]: no binding | binding (Flag-IRF3-D3 (1-140 aa)): no binding
Substance: HA-tagged Annexin A2 (HA-ANXA2) (from UniProt P07355 1-339)
